Values from PubChem BioAssay AID1259254 (NCATS, 2017).

- Screen: 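Finding genes that stop cells copying their DNA twice in one cycle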 (primary screen)
- Cells: human HCT116 colorectal cancer cells
- Reagents: single siRNA against human genes
- Timing: 3 days
- Measured: 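Nuclei stained with Hoechst and imaged; cell-cycle phase assigned by DNA content; G2 share scaled per plate, non-targeting siRNA 0%, GMNN siRNA 100%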
- Direction: G2 robust z-score and G2 cells, % of GMNN control: higher = more G2 cells, more excess DNA replication
- Call rule: 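An siRNA counts as active if its G2 robust z-score lies at least 5 MADs above the screen median; here such calls match roughly 38% of GMNN control or more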
The whole screen tested about 59,000 reagents; this is a part drawn at random. In the full data, about 1,550 (2.6%) were called active. 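G2 share is only a proxy for re-replication; each gene was hit by three separate siRNAs, and active genes were retested.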 The numbers tell different reagents against one gene apart. Not all columns of the deposit are shown. Reagent sequences are not shown. The record does not give: the amount of reagent.

Knock-down of OR1D4 #1 resulted in: G2 robust z-score 0.645; G2 cells, % of GMNN control 7.51; inactive.
OR1D4 #2 scored G2 robust z-score 0.719; G2 cells, % of GMNN control 8.02; inactive.
OR1D4 #3 gave G2 robust z-score 1.01; G2 cells, % of GMNN control 10.1; inactive.
After knock-down of BORCS7 #1 the results were G2 robust z-score -0.484; G2 cells, % of GMNN control -0.439; inactive.
BORCS7 #2 gave G2 robust z-score 1.48; G2 cells, % of GMNN control 13.4; inactive.
Depletion of BORCS7 #3 came out at: G2 robust z-score -0.481; G2 cells, % of GMNN control -0.42; inactive.
Against SULT4A1 #1, the values are G2 robust z-score -0.723; G2 cells, % of GMNN control -2.12; inactive.
Knock-down of SULT4A1 #2 came out at: G2 robust z-score -1.04; G2 cells, % of GMNN control -4.37; inactive.
Silencing of SULT4A1 #3 came out at: G2 robust z-score 1.04; G2 cells, % of GMNN control 10.3; inactive.
For KCP #1, the values are G2 robust z-score -0.819; G2 cells, % of GMNN control -2.79; inactive.
Knock-down of KCP #2 came out at: G2 robust z-score 2.51; G2 cells, % of GMNN control 20.6; inactive.
With knock-down of KCP #3, the screen gave G2 robust z-score 1.26; G2 cells, % of GMNN control 11.8; inactive.
DPPA2 #1 showed G2 robust z-score -0.753; G2 cells, % of GMNN control -2.33; inactive.
For DPPA2 #2, the values are G2 robust z-score -0.512; G2 cells, % of GMNN control -0.633; inactive.
DPPA2 #3 scored G2 robust z-score -0.826; G2 cells, % of GMNN control -2.85; inactive.
Knock-down of TUBB6 #1 resulted in: G2 robust z-score -1.14; G2 cells, % of GMNN control -5.02; inactive.
With knock-down of TUBB6 #2, the screen gave G2 robust z-score 1.03; G2 cells, % of GMNN control 10.2; inactive.
Knock-down of TUBB6 #3 gave: G2 robust z-score -0.234; G2 cells, % of GMNN control 1.32; inactive.
Knock-down of SOCS1 #1 resulted in: G2 robust z-score 1.73; G2 cells, % of GMNN control 15.2; inactive.
Knock-down of SOCS1 #2 gave: G2 robust z-score -1.18; G2 cells, % of GMNN control -5.33; inactive.
Silencing of SOCS1 #3 gave: G2 robust z-score 3.45; G2 cells, % of GMNN control 27.3; inactive.
With knock-down of MFSD2B #1, the screen gave G2 robust z-score 0.86; G2 cells, % of GMNN control 9.02; inactive.
After knock-down of MFSD2B #2, the screen gave G2 robust z-score -0.333; G2 cells, % of GMNN control 0.627; inactive.
MFSD2B #3 scored G2 robust z-score 0.182; G2 cells, % of GMNN control 4.25; inactive.
